Common to all, as to assay: log2 fold change, soluble protein after heating vs DMSO (PISA); higher = thermal stabilisation; K562 cells, 10 uM, 30 min; active = over 0.2 and 3.5 SD of the protein, either way, in both replicates (recomputed)
Compound in experiment [1]: NC(=O)Nc1cc(-c2cccc(F)c2)sc1C(=O)N[C@H]1CCCNC1
In outline: (§1)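 K562 cells at 2×10^6 cells/mL were treated with 10 μM compound for 30 min. Aliquots were heated for 3 min across 48°C-58°C, pooled, and extracted in PBS with 0.5% NP-40 at 4°C; soluble protein was the supernatant after 21,000xg for 90 min. Soluble protein was quantified by TMTpro 16plex LC-MS/MS with channel sums equalised, and reported as log2 fold change in thermal stability against DMSO controls, with values from duplicates.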

The chains behind the UniProt entries cited, without tags or fusion partners. Where a name states a change or a piece, a line headed by the entry shows the natural chain unless it says otherwise.
UniProt P13797: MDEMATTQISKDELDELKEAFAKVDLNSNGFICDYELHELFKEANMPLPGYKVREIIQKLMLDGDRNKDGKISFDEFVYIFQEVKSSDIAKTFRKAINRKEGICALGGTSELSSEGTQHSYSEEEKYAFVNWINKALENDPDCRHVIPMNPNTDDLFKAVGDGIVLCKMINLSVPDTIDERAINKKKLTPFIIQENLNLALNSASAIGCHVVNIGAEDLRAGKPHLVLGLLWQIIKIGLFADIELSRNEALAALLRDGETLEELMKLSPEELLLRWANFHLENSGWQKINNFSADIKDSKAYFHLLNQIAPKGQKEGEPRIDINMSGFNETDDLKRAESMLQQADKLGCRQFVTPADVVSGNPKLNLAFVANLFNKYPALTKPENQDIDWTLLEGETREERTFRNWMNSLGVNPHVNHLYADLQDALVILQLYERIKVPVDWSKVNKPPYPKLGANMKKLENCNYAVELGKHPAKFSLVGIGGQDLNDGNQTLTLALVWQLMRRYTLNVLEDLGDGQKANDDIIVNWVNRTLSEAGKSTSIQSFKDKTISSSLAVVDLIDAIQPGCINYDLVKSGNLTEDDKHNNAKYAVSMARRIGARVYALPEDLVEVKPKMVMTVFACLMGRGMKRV
UniProt Q9NQ55: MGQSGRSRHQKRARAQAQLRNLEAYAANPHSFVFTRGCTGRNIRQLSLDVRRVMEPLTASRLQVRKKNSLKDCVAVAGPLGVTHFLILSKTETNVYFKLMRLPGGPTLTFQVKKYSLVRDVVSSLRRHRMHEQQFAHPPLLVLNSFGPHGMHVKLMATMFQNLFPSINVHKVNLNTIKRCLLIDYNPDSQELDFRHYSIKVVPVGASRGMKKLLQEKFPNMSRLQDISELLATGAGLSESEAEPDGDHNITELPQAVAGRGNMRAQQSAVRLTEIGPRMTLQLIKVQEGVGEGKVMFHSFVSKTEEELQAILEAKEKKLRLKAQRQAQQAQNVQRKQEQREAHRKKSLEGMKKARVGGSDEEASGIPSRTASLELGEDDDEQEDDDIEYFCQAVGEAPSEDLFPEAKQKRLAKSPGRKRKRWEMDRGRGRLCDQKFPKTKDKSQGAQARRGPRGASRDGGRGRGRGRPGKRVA
UniProt O95707: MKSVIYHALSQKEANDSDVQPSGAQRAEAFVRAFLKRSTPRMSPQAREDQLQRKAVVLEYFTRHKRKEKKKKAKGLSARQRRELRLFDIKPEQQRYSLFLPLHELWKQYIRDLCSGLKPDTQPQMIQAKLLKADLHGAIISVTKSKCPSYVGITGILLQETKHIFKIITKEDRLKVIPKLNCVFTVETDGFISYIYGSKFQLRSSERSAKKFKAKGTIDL
UniProt Q9NZ53: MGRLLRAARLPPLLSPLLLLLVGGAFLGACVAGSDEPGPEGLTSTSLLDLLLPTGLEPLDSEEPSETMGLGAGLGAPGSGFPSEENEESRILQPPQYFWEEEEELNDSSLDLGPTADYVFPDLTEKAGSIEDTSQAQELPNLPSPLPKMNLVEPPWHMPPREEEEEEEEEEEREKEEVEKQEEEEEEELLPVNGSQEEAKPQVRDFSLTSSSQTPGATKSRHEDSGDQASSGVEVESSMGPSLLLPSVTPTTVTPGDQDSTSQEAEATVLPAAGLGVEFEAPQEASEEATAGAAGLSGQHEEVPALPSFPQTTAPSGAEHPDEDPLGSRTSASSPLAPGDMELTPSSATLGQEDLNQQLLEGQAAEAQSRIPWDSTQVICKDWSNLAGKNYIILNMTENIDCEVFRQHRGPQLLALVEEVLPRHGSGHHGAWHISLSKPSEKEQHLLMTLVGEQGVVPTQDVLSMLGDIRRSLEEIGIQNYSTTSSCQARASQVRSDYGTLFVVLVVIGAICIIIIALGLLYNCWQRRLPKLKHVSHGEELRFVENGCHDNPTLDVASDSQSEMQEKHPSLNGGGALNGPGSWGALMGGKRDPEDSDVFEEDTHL
UniProt Q92871: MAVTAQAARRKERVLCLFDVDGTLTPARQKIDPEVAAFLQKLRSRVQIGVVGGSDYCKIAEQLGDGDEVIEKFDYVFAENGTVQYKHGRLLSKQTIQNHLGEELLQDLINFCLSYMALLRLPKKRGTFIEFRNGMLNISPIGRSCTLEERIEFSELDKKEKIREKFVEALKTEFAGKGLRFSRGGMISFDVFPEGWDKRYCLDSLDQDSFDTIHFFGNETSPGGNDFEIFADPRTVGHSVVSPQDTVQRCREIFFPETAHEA
UniProt O14802: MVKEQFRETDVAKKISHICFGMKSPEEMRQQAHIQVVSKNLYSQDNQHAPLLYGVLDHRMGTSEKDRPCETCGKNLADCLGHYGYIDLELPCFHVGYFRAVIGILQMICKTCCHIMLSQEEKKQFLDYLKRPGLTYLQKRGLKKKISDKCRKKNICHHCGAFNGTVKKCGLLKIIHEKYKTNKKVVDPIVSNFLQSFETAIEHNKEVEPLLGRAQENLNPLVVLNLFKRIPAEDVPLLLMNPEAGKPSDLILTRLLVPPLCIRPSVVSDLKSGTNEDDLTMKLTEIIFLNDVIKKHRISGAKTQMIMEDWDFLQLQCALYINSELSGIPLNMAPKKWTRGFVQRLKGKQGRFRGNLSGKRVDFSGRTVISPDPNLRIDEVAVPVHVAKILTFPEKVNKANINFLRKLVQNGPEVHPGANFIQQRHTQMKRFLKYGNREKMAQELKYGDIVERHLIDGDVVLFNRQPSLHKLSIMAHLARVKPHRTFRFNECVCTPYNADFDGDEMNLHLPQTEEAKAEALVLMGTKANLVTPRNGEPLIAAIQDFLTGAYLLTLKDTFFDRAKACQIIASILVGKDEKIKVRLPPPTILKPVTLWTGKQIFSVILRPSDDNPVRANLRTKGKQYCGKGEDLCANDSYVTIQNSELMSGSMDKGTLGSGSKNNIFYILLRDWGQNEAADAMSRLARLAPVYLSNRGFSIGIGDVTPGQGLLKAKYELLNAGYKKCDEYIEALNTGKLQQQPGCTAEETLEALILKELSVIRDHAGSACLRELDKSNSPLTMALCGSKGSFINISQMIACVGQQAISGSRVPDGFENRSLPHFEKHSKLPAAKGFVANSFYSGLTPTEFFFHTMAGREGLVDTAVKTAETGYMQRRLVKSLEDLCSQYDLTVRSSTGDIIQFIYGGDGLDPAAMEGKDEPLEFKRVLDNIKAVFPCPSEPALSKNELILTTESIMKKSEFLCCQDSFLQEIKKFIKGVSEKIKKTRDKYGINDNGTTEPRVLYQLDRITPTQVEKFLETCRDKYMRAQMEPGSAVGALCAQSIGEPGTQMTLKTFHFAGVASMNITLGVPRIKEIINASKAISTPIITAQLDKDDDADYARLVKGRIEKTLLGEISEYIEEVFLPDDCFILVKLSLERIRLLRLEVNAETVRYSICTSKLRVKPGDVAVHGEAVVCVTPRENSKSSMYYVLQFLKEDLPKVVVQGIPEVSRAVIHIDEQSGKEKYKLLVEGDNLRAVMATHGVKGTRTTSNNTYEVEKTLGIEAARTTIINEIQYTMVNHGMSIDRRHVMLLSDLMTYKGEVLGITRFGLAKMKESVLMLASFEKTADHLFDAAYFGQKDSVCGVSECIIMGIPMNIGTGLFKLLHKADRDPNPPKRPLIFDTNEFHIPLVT
UniProt O60664: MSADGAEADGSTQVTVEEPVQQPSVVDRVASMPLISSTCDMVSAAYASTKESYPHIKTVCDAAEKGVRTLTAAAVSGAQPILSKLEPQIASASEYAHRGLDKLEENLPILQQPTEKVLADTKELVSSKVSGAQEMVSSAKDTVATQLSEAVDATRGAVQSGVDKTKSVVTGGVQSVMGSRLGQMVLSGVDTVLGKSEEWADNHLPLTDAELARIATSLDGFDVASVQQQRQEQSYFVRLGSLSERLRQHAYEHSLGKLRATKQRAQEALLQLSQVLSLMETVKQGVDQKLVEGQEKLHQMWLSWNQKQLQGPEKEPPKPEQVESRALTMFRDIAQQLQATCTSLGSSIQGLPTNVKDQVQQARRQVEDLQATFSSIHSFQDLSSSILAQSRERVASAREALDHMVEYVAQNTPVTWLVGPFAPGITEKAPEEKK
UniProt Q15063: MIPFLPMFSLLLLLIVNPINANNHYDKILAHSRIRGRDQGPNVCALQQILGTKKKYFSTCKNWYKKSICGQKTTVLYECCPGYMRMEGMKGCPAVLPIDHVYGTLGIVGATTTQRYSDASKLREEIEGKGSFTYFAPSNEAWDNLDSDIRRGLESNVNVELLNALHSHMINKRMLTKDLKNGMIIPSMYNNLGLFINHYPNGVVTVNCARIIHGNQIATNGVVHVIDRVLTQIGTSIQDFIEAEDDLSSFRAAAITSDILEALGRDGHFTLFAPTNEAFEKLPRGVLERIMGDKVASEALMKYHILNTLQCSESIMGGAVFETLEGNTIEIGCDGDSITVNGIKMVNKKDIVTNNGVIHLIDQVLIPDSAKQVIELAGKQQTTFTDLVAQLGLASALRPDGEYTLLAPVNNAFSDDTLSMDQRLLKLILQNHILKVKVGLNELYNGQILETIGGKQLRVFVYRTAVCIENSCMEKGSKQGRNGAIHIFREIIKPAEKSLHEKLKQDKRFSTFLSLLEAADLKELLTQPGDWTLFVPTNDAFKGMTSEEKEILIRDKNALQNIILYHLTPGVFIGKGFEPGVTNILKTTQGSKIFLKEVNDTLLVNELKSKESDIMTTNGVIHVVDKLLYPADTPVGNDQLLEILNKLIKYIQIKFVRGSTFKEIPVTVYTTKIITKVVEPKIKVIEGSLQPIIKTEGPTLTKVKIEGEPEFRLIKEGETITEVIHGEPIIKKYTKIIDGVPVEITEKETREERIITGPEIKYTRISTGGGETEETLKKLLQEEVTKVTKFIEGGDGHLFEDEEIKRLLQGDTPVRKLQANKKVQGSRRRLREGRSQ
UniProt Q04941: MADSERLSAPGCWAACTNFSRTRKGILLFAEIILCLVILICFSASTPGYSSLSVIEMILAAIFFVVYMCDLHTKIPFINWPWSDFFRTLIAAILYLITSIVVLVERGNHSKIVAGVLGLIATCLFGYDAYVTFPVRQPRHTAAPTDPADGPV
UniProt Q8TCS8: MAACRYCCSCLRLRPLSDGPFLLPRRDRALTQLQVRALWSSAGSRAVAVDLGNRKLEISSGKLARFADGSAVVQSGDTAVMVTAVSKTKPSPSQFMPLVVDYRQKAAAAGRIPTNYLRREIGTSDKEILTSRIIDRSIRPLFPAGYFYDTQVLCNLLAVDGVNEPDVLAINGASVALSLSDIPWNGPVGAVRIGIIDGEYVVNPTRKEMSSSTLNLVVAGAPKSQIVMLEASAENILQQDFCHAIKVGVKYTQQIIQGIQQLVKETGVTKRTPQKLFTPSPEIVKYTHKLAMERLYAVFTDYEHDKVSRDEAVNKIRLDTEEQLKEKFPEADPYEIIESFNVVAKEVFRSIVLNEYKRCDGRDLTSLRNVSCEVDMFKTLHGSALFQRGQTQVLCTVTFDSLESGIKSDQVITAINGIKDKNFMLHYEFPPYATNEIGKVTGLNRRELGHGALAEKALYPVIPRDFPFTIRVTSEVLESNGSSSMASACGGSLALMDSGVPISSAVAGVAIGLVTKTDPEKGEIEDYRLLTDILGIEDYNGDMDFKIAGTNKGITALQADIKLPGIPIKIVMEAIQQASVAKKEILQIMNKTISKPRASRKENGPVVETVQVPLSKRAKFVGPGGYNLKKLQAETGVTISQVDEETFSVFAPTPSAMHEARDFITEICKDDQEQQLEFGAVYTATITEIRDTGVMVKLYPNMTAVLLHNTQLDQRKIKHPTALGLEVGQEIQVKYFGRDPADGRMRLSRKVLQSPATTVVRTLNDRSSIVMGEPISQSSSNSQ
UniProt Q7Z4H8: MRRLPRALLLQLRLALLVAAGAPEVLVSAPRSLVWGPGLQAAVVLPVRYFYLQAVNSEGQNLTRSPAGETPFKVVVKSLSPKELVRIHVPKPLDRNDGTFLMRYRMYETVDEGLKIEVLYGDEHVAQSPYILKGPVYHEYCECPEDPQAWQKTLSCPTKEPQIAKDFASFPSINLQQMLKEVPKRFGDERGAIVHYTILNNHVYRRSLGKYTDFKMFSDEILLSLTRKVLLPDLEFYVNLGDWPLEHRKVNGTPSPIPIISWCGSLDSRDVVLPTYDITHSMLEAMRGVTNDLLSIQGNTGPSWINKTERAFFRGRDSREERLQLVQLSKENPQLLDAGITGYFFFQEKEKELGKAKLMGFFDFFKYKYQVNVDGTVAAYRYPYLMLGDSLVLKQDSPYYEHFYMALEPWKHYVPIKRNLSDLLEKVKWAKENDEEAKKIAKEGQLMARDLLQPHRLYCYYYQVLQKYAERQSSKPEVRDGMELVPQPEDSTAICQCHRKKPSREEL
UniProt P00491: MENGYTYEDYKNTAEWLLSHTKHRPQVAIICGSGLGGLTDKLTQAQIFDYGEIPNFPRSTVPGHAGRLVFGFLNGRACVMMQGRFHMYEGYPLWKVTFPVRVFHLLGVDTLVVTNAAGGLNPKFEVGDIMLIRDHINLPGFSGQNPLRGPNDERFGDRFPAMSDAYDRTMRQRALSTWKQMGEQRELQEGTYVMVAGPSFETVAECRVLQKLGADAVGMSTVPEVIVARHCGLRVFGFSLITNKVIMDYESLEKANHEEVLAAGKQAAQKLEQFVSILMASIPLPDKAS

Compound in experiment [2]: NC(=O)c1cnc(N[C@@H]2CCCC[C@@H]2N)nc1Nc1cccc(-n2nccn2)c1
Put shortly:
as §1

Compound in experiment [3]: NC1(c2ccc(-c3nc4ccn5c(=O)[nH]nc5c4cc3-c3ccccc3)cc2)CCC1
In outline:
as §1

Compound in experiment [4]: NCC(=O)Nc1ccc(-n2nc(C(F)(F)F)cc2-c2ccc3c(ccc4ccccc43)c2)cc1
In outline: as §1

Compound in another experiment: Nc1ccccc1NC(=O)c1ccc(CNC(=O)OCc2cccnc2)cc1 [entinostat]
In outline: as §1

Compound in the next experiment: O=C(CCCCCCC(=O)Nc1ccccc1)NO [vorinostat]
In outline: as §1

Compound in a further experiment: O=C(CCCCCCNC(=O)c1cnc(N(c2ccccc2)c2ccccc2Cl)nc1)NO [citarinostat]
Put shortly: as §1

Compound in a further experiment: O=C(O)c1ccc2c(c1)nc(Nc1cccc(Cl)c1)c1ccncc12 [silmitasertib]
Put shortly: as §1

Compound in experiment [5]: O=C1NC(=O)C(c2cnc3ccccn23)=C1c1cn2c3c(cc(F)cc13)CN(C(=O)N1CCCCC1)CC2
Put shortly:
as §1

Compound in experiment [6]: c1cc(OCCN2CCCCC2)cc(-c2n[nH]c3ccc(-c4nnc[nH]4)cc23)c1
In outline:
as §1

Compound in another experiment: c1cn2cc(-c3ccc4cn[nH]c4c3)nc(Nc3ccc(N4CCOCC4)cc3)c2n1 [entospletinib]
Put shortly:
as §1

The list shows a part of the results.

In the case of PLS3 (UniProt P13797), the log2 fold change is inactive: -0.07 in [1]; inactive: -0.038 in experiment [2]; inactive: -0.023 in [3]; inactive: -0.001 in [4]; inactive: -0.035 with entinostat; inactive: -0.027 with vorinostat. Also, the log2 fold change with citarinostat is inactive: -0.007; in the experiment with silmitasertib, inactive: 0.037; in experiment [5], inactive: -0.075; in [6], inactive: -0.046; in the experiment with entospletinib, inactive: -0.045.

For the target PPAN isoform 3 (UniProt Q9NQ55), the log2 fold change in experiment [1] was inactive: -0.18; in experiment [2], inactive: 0.106; in experiment [3] it was inactive: 0.026; in [4], inactive: 0.06; with entinostat, inactive: -0.205; in the experiment with vorinostat, inactive: 0.084. Also, the log2 fold change in the experiment with citarinostat is inactive: 0.009; with silmitasertib, inactive: 0.237; in [5], inactive: 0.347; in experiment [6], inactive: -0.199; with entospletinib it was inactive: -0.064.

With POP4 (UniProt O95707), the log2 fold change in [1] was inactive: -0.083; in experiment [2], inactive: -0.065; in experiment [3], inactive: -0.004; in experiment [4], inactive: -0.057; with entinostat it was inactive: -0.009; with vorinostat, inactive: -0.034. Moreover, the log2 fold change in the experiment with citarinostat is inactive: 0.013; with silmitasertib, inactive: 0.018; in experiment [5], inactive: -0.033; in experiment [6], inactive: -0.165; in the experiment with entospletinib it was inactive: -0.018.

On to PODXL2 (UniProt Q9NZ53), for which the log2 fold change in experiment [1] is inactive: -0.011; in experiment [2], inactive: 0.024; in experiment [3], inactive: -0.088; in experiment [4], inactive: 0.03; with entinostat, inactive: 0.131; with vorinostat, inactive: -0.072. The log2 fold change with citarinostat was inactive: 0.03; in the experiment with silmitasertib it was inactive: 0.057; in experiment [5], inactive: 0; in experiment [6] it was inactive: -0.168; in the experiment with entospletinib, inactive: -0.025.

Consider PMM1 (UniProt Q92871), for which the log2 fold change was inactive: 0.005 in experiment [1]; inactive: 0.006 in [2]; inactive: -0.01 in experiment [3]; inactive: 0.002 in experiment [4]; inactive: -0.021 with entinostat; inactive: 0.113 in the experiment with vorinostat. The log2 fold change in the experiment with citarinostat is inactive: 0.034; in the experiment with silmitasertib it was inactive: -0.005; in experiment [5] it was inactive: 0.004; in [6], inactive: -0.012; in the experiment with entospletinib, active: -0.415.

For the target POLR3A (UniProt O14802), the log2 fold change in experiment [1] is inactive: 0.156; in experiment [2], inactive: -0.05; in [3] it was inactive: -0.222; in [4], inactive: 0; with entinostat, inactive: 0.106; in the experiment with vorinostat, inactive: -0.03. Also, the log2 fold change with citarinostat was inactive: -0.101; with silmitasertib, inactive: 0.174; in experiment [5] it was inactive: -0.011; in experiment [6], inactive: -0.033; with entospletinib it was inactive: 0.066.

As to PLIN3 (UniProt O60664), the log2 fold change is inactive: -0.009 in [1]; inactive: -0.043 in [2]; inactive: -0.069 in [3]; inactive: 0.028 in experiment [4]; inactive: 0 with entinostat; inactive: 0.016 with vorinostat. Further, the log2 fold change with citarinostat is inactive: 0.013; with silmitasertib it was inactive: -0.041; in [5], inactive: -0.016; in experiment [6] it was inactive: -0.029; with entospletinib it was inactive: -0.011.

In the case of POSTN (UniProt Q15063), the log2 fold change in [1] is inactive: -0.085; in [2], inactive: -0.049; in [3] it was inactive: -0.164; in experiment [4], inactive: -0.053; with entinostat it was inactive: -0.018; with vorinostat it was inactive: 0.226. Besides, the log2 fold change in the experiment with citarinostat is inactive: -0.019; with silmitasertib it was inactive: 0.143; in [5], inactive: 0.003; in [6], inactive: 0.041; with entospletinib, inactive: 0.105.

For PLP2 (UniProt Q04941), the log2 fold change in [1] was inactive: -0.086; in experiment [2], inactive: 0.133; in [3] it was inactive: 0.179; in experiment [4], inactive: 0.35; in the experiment with entinostat, inactive: -0.036; with vorinostat, inactive: -0.064. Also, the log2 fold change in the experiment with citarinostat is inactive: 0.007; with silmitasertib, inactive: -0.05; in [5], inactive: -0.251; in experiment [6] it was inactive: -0.063; with entospletinib, inactive: 0.082.

As to PNPT1 (UniProt Q8TCS8), the log2 fold change is inactive: 0.031 in [1]; inactive: -0.014 in experiment [2]; inactive: -0.04 in experiment [3]; inactive: -0.077 in experiment [4]; inactive: 0.075 with entinostat; inactive: 0.063 with vorinostat. Further, the log2 fold change was inactive: 0.09 with citarinostat; inactive: 0.001 in the experiment with silmitasertib; inactive: -0.11 in experiment [5]; inactive: -0.006 in experiment [6]; inactive: -0.041 with entospletinib.

As for POGLUT3 (UniProt Q7Z4H8), the log2 fold change in experiment [1] was inactive: 0.02; in experiment [2], inactive: 0.042; in experiment [3], inactive: -0.051; in experiment [4] it was inactive: 0.001; with entinostat, inactive: 0.013; in the experiment with vorinostat, inactive: 0.008. Further, the log2 fold change is inactive: 0.04 with citarinostat; inactive: 0.026 with silmitasertib; inactive: -0.001 in [5]; inactive: -0.072 in experiment [6]; inactive: -0.043 with entospletinib.

POLR3F (UniProt Q9H1D9): the log2 fold change in [1] is inactive: 0.006; in experiment [2], inactive: -0.043; in [3], inactive: 0.006; in experiment [4] it was inactive: -0.01; with entinostat, inactive: -0.027; with vorinostat, inactive: 0.111. In addition, the log2 fold change in the experiment with citarinostat is inactive: -0.012; with silmitasertib, inactive: -0.015; in experiment [5] it was inactive: -0.038; in experiment [6] it was inactive: -0.124; with entospletinib it was inactive: 0.019.

As to PNP (UniProt P00491), the log2 fold change is inactive: 0.022 in experiment [1]; inactive: -0.003 in [2]; inactive: -0.015 in experiment [3]; inactive: 0.015 in experiment [4]; inactive: -0.036 with entinostat; inactive: -0.012 with vorinostat. The log2 fold change with citarinostat was inactive: 0.019; with silmitasertib it was inactive: 0.005; in experiment [5] it was inactive: 0.001; in experiment [6] it was inactive: 0.008; in the experiment with entospletinib, inactive: -0.016.

The values are drawn from the supplement of paper PMC10849652.
